These are yes or no findings as the source states them, for the method shown. In cells and extracts the contact can be indirect. Some results given as binding are weak or reduced against the parent protein; the word gives no strength. Where a sequence is shown, tags or fusion partners need not be part of it.
T1: PA-Atg7[∆295-600] (S. cerevisiae) (UniProt P38862)
T1 sequence: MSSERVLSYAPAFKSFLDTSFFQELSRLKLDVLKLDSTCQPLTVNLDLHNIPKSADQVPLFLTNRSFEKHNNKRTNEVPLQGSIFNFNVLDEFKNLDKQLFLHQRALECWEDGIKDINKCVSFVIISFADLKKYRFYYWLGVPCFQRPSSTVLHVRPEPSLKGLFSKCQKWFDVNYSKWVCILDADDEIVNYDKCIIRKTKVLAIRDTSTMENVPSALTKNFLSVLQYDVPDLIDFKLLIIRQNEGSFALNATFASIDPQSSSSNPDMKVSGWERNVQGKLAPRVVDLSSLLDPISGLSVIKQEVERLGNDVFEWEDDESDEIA

T2: PA-Atg7 (full length, wild type) (S. cerevisiae) (UniProt P38862)
T2 sequence: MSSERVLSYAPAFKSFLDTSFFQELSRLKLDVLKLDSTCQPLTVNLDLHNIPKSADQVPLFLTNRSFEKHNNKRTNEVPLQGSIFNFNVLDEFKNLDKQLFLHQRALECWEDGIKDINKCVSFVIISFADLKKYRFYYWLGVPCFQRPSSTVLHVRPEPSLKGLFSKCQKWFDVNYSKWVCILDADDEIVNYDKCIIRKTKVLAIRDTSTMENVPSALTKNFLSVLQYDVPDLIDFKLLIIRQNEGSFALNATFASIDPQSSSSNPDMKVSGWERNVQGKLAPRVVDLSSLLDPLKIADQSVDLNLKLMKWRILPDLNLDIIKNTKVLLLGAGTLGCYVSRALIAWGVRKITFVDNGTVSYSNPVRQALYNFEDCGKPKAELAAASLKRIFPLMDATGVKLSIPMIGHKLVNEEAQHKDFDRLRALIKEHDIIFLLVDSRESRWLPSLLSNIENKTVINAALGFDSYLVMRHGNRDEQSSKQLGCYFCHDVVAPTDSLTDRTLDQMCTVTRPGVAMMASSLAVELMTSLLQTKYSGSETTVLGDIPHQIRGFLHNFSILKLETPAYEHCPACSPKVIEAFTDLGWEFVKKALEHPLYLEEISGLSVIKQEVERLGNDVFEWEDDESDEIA

T3: PA-Atg10[∆111-167] (S. cerevisiae) (UniProt Q07879)
T3 sequence: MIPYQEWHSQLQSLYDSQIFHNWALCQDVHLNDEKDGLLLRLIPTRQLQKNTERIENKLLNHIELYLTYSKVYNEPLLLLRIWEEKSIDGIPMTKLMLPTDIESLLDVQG

T4: His6-Atg12 (wild type) (S. cerevisiae) (UniProt P38316)
T4 sequence: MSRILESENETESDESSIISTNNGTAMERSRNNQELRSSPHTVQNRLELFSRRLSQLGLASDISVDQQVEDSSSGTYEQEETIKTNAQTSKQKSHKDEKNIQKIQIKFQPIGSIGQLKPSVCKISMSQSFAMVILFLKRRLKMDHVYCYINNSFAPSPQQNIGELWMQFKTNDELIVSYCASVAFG


Experiments:
[1] = target: T1, PA-Atg7[∆295-600] (S. cerevisiae); experiment: co-IP; affinity isolation from lysates of atg7∆ atg12∆ yeast cells expressing PA-Atg7 variants and His6-Atg12 variants (CUP1 promoter); PA-Atg7 as bait (methods: IgG Sepharose 6 Fast Flow), 2 h at 4 °C; PBS pH 7.4, 0.2 M sorbitol, 1 mM MgCl2, 0.1% or 0.5% Triton X-100; western blot with anti-polyhistidine and anti-PAP
[2] = target: T2, PA-Atg7 (full length, wild type) (S. cerevisiae); experiment: as above
[3] = target: T3, PA-Atg10[∆111-167] (S. cerevisiae); experiment: co-IP; affinity isolation from lysates of atg7∆ atg10∆ atg12∆ yeast cells (no Atg7, proteins unconjugated) overexpressing PA-Atg10 variants and His6-Atg12 variants (CUP1 promoter); PA-Atg10 as bait (methods: IgG Sepharose 6 Fast Flow), 2 h at 4 °C; PBS pH 7.4, 0.2 M sorbitol, 1 mM MgCl2, 0.1% or 0.5% Triton X-100; western blot
[4] = target: T4, His6-Atg12 (wild type) (S. cerevisiae); experiment: pull-down; His6-Atg12 pulled down by TALON metal affinity resin from lysates of atg7∆ atg10∆ atg12∆ yeast cells overexpressing PA-Atg7, PA-Atg10 and His6-Atg12; 2 h at 4 °C; elution with SDS-PAGE buffer and 0.5 M imidazole; western blot with anti-PA or anti-His

Binder | binding [1] | binding [2] | binding [3] | binding [4]
His6-Atg12 (wild type) (protein, UniProt P38316 1-186) MSRILESENETESDESSIISTNNGTAMERSRNNQELRSSPHTVQNRLELFSRRLSQLGLASDISVDQQVEDSSSGTYEQEETIKTNAQTSKQKSHKDEKNIQKIQIKFQPIGSIGQLKPSVCKISMSQSFAMVILFLKRRLKMDHVYCYINNSFAPSPQQNIGELWMQFKTNDELIVSYCASVAFG | binds | binds | binds | 
PA-Atg7 (full length, wild type) (enzyme, UniProt P38862 1-630) MSSERVLSYAPAFKSFLDTSFFQELSRLKLDVLKLDSTCQPLTVNLDLHNIPKSADQVPLFLTNRSFEKHNNKRTNEVPLQGSIFNFNVLDEFKNLDKQLFLHQRALECWEDGIKDINKCVSFVIISFADLKKYRFYYWLGVPCFQRPSSTVLHVRPEPSLKGLFSKCQKWFDVNYSKWVCILDADDEIVNYDKCIIRKTKVLAIRDTSTMENVPSALTKNFLSVLQYDVPDLIDFKLLIIRQNEGSFALNATFASIDPQSSSSNPDMKVSGWERNVQGKLAPRVVDLSSLLDPLKIADQSVDLNLKLMKWRILPDLNLDIIKNTKVLLLGAGTLGCYVSRALIAWGVRKITFVDNGTVSYSNPVRQALYNFEDCGKPKAELAAASLKRIFPLMDATGVKLSIPMIGHKLVNEEAQHKDFDRLRALIKEHDIIFLLVDSRESRWLPSLLSNIENKTVINAALGFDSYLVMRHGNRDEQSSKQLGCYFCHDVVAPTDSLTDRTLDQMCTVTRPGVAMMASSLAVELMTSLLQTKYSGSETTVLGDIPHQIRGFLHNFSILKLETPAYEHCPACSPKVIEAFTDLGWEFVKKALEHPLYLEEISGLSVIKQEVERLGNDVFEWEDDESDEIA |  |  |  | binds

From article PMC10606595
